Primary screen of a compound library

Protein sequences, listed by entry. Tags and fused reporters are not part of them.
UniProt P9WFT3, whole entry: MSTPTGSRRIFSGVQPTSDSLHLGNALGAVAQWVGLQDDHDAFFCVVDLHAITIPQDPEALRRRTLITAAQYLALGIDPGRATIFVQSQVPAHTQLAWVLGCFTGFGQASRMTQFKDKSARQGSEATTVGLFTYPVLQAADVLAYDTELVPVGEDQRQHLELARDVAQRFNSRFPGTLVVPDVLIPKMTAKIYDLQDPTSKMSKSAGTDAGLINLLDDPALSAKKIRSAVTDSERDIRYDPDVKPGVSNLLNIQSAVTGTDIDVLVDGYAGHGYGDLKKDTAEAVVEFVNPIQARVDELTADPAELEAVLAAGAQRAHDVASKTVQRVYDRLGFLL
UniProt P9WNZ1, whole entry: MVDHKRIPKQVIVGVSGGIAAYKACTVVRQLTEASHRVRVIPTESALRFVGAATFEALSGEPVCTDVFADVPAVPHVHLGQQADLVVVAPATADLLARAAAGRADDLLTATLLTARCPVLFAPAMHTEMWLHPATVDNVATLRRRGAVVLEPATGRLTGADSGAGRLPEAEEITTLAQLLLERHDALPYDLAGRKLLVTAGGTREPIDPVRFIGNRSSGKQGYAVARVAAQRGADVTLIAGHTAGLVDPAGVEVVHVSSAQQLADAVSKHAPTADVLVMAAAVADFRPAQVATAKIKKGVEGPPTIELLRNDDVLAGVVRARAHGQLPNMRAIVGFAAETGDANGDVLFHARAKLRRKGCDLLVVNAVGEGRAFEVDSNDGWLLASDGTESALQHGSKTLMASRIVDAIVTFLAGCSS

The values are deposited in ChEMBL (CHEMBL3988442, “University of Dundee, Small-Polar-MMV Screening Library” (2021)).

Values are the deposited “Percent Effect”, in %.
The record does not define 0% and 100%; most values in the screen are far below 50% and negative numbers occur (in some assays of this library far below -100).
The compounds are a random part of those screened.
Two or more numbers in one place are separate tests of the same structure; such repeats can differ widely.
A dash means the value is not listed here; it may have been measured.

A: 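Cell assay of Leishmania donovani living inside macrophages; the read-out is not stated. Tested at 30 µM. Higher reads as stronger inhibition (inferred: compounds with an IC50 in retests scored well above the rest). Of about 69,000 compounds tested this way, about 1,000 (1.5%) reached 50% or more in at least one test.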
B: 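Enzyme assay of tryptophanyl-tRNA synthetase; the read-out is not stated. Target: Tryptophan-tRNA ligase, Mycobacterium tuberculosis (UniProt P9WFT3). Concentration: 10 µM. Direction is not recorded; retested compounds ran higher, which suggests that high means inhibition. About 65,000 compounds were tested under these conditions; 0.098% (about 64) showed 50% or more at least once.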
C: 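Assay of Toxoplasma gondii numbers, read through their beta-galactosidase reporter with a colour substrate. Compounds at 10 µM. The record gives no direction; the compounds picked for IC50 retests had high values, so higher reads as fewer parasites. About 67,000 compounds were tested under these conditions; 0.38% (about 260) showed 50% or more at least once.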
D: 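Coenzyme A biosynthesis protein CoaBC, Mycobacterium tuberculosis (UniProt P9WNZ1). Enzyme assay of CoaBC with a phosphate dye (Biomol Green) read at 650 nm. Tested at 30 µM. Higher reads as stronger inhibition, judged from the few compounds that gave an IC50. Most strong results did not repeat in a second test. Of about 67,000 compounds tested this way, about 40 (0.06%) reached 50% or more in at least one test.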

For Cc1cnc(N2CCc3cc(C(=O)O)c(N(C)C)nc3CC2)nc1 the result was D: 1.361%.
For CC(C)Cc1cc(NC(=O)c2cc(Cl)c[nH]2)n(C)n1 the result was A: -56.19%; B: 1.266%; C: -0.02903%; D: -8.645%.
For CCNc1nc(C)c(C(=O)N(C)Cc2noc(C)n2)s1 the result was A: 10.55%; B: -1.308%; C: 4.438%; D: 4.321%.
For CN(C)c1cc(C(=O)NCC2(c3cccc(F)c3)CCOCC2)ccn1 the result was A: 6.882%; B: 2.566%; C: 1.578%; D: 0.1626%.
For CCc1cnc(N2C[C@@H](NC(=O)c3cscn3)[C@H]3COC[C@H]32)nc1 the result was B: -7.091%; D: -1.932%.
For COCC(=O)N(Cc1cccnc1)CC1CCCN(C2CCCCC2)C1 (centres undefined) the result was A: 15.2%; B: 5.038%; C: 10.2%; D: 13.61%.
For Cn1cc(CCC(=O)N2CCN(Cc3ccncc3)CC2)cn1 the result was A: -7.324%; B: -1.359%; C: 2.223%; D: 1.446%.
For O=c1ccn([C@H]2CCN(Cc3ncc[nH]3)CC[C@@H]2O)c(=O)[nH]1 the result was A: 13.2%; C: -29.32%; D: 4.337%.
For Cc1nn(C(C)(C)C)c(=O)n1CC(=O)NC(C)(C)C the result was A: 5.261%; B: 0.7435%; C: -7.737%; D: 5%.
For O=C(c1ccc(F)cc1)N1CCC2(CCCN2CC2CC2)CC1 the result was B: 0.3817%; D: 2.66%.
For CNC(=O)C1CCCN(C(=O)c2cncs2)C1 (centres undefined) the result was A: -26%; B: 4.112%; C: -22.81%; D: 0%.
For COc1cc(N2CC[C@@H](O)[C@@H]2Cc2ccncc2)ncn1.O=C(O)C(F)(F)F the result was A: 17.93%; C: -12.65%.
For Cc1cncc(C2CCCN2CC(N)=O)n1 (centres undefined) the result was A: -11.35%; B: -0.8587%; C: 7.946%; D: 7.925%.
For O=C(c1nc2c(s1)CCCN2CC1CC1)N1CCCC1 the result was A: 4.465%; B: -1.83%; C: -3.945%; D: 2.254%.
For CC(C)CCc1noc(CN2CCCN(C(=O)c3ccco3)CC2)n1 the result was A: 17.65%; B: 2.549%; C: 7.785%; D: -4.946%.
For c1ccc(-c2cc(CN3C[C@@H]4CC[C@H](C3)N(CC3CC3)C4)on2)cc1 the result was B: -3.65%; D: -51.61%.
For CN(CCC(=O)N1CCCC(Cc2cccnc2)C1)Cc1cccnc1 (centres undefined) the result was A: 2.535% and 13.41%; C: -28.41%; D: 6.311%.
For Cc1nnc(CN2CCN(C)C3(CCNC(=O)CC3)C2)s1 (centres undefined) the result was A: 32.74%; B: 1.972%; C: 12.85%; D: 0.3764%.
For COCCCC(=O)Nc1cc(Cl)c(Cl)cn1 the result was A: 11.58%; B: -1.372%; C: 4.93%; D: -5.042%.
For COC(=O)[C@@H](NC(=O)Nc1ccc(C(C)=O)cc1)C(C)C the result was A: -1.414%; B: -8.918%; C: -3.609%; D: -2.421%.
For O=C(O)C(F)(F)F.c1ncn(Cc2cn3c(n2)CN(CC2CCCC2)CC3)n1 the result was A: -12.84%; C: 0.1394%.
For CCc1nc(C)c(C2CC(=O)Nc3c2c(-c2ccccn2)nn3C)[nH]1 (centres undefined) the result was A: -13.46%; B: 3.212%; C: -8.459%; D: 1.282%.
For O=C(CC1=CSC2=NCCCN12)N1CCCCC1c1cccc(F)c1 (centres undefined) the result was A: 37.34%; B: -1.083%; C: 10.01%; D: 7.295%.
For CC(CNS(C)(=O)=O)c1ccc(F)c(F)c1 (centres undefined) the result was A: -5.892%; B: -2.437%; C: 5.605%; D: -2.593%.
For O=C(c1ccncc1F)N1CCc2onc(COc3cccnc3)c2C1 the result was B: -2.346%; D: 1%.
For Cc1noc(COCC(=O)N2CCCC(c3nccs3)C2)n1 (centres undefined) the result was A: 13.62%; B: -8.566%; C: 14.76%.
For COc1ccccc1CCN1CCCC(CN(C)Cc2cc(C)n[nH]2)C1 (centres undefined) the result was A: 19.41%; B: -0.136%; C: 1.249%; D: 9.494%.
For CCc1nccn1C1CCCN(C(=O)c2ccn(-c3ccccc3)n2)C1 (centres undefined) the result was A: 27.46%; B: 2.638%; C: 4.602%; D: -24.21%.
For Cc1nc(C2(NCC(=O)NCCc3cccs3)CCCC2)no1 the result was A: 25.78%; B: -3.072%; C: 3.268%; D: 7.962%.
For [H][C@@]12CN(C(=O)c3cc(C)on3)C[C@@]1([H])N(CC1CC1)C(=O)CO2 the result was A: 18.33%; C: 6.734%.
For Cc1ncc2c(n1)CN(Cc1ncc(C(C)(C)C)o1)CC2 the result was A: -7.114%; B: 3.121%; C: -6.559%; D: 2.273%.
For C/C=C(\C)CN1C[C@@H](NC(=O)c2ccc(O)c(Cl)c2)C[C@H]1C(=O)NCC the result was A: 21.95%; B: 1.445%; C: -0.1142%.

Once more, the final 4:

structure	A	B	C	D
Cc1nc(C2(NCC(=O)NCCc3cccs3)CCCC2)no1	25.78	-3.072	3.268	7.962
[H][C@@]12CN(C(=O)c3cc(C)on3)C[C@@]1([H])N(CC1CC1)C(=O)CO2	18.33	-	6.734	-
Cc1ncc2c(n1)CN(Cc1ncc(C(C)(C)C)o1)CC2	-7.114	3.121	-6.559	2.273
C/C=C(\C)CN1C[C@@H](NC(=O)c2ccc(O)c(Cl)c2)C[C@H]1C(=O)NCC	21.95	1.445	-0.1142	-